Record: PubChem BioAssay AID686943 (Drosophila RNAi Screening Center, 2013)

- Purpose: 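Fly genes whose loss alters ERK activation after insulin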 (primary screen)
- Cell system: Drosophila S2R+ haemocyte-like cells expressing YFP-tagged ERK (Rolled)
- Knock-down reagent: long dsRNA against Drosophila genes
- Conditions: insulin stimulation versus unstimulated cells; dose and duration not given
- Measured: 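Per-plate z-scores of phospho-ERK immunostaining normalised to YFP-tagged ERK, measured with and without insulin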
- Scale: replicate 1, z-score of dpERK with insulin and replicate 2, z-score of dpERK with insulin: higher = more active ERK per ERK-YFP after insulin
In all, the deposit lists about 23,000 reagents; shown is an unselected part of those with a known target gene and a result. 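Extra replicates exist only for a retested subset of genes; insulin dose and duration not given; both raised and lowered dpERK matter.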 A plus sign joins genes that one reagent is predicted to hit. Further read-outs or replicates are left out here. The record does not give: the amount of reagent, the time to read-out.

gene	dsRNA	replicate 1, z-score of dpERK with insulin	replicate 2, z-score of dpERK with insulin
CG10472	DRSC09730	1.34	-0.21
brwl	DRSC01080	-0.77	-1.85
brwl	DRSC02729	-0.42	-0.32
CG13739	DRSC06410	-5.56	-4.93
Muc4B	DRSC18062	-0.09	0.43
Muc4B	DRSC18063	-2.12	-1.55
mRpL13	DRSC02076	-0.01	0.5
CG16824	DRSC02525	1.05	2.05
CG15333	DRSC18016	-0.25	-0.13
CG15333	DRSC18153	0.41	0.72
CG18231	DRSC10307	0.73	-0.68
CG32814	DRSC17670	0.25	0.16
CG42450	DRSC20022	-0.78	0.28
CG42450	DRSC22751	0.51	0.64
Or59a	DRSC04631	-0.29	-0.22

6 of these entries, reformatted:
CG13739 [DRSC06410]
- replicate 1, z-score of dpERK with insulin: -5.56
- replicate 2, z-score of dpERK with insulin: -4.93

Muc4B [DRSC18062]
- replicate 1, z-score of dpERK with insulin: -0.09
- replicate 2, z-score of dpERK with insulin: 0.43

Muc4B [DRSC18063]
- replicate 1, z-score of dpERK with insulin: -2.12
- replicate 2, z-score of dpERK with insulin: -1.55

mRpL13 [DRSC02076]
- replicate 1, z-score of dpERK with insulin: -0.01
- replicate 2, z-score of dpERK with insulin: 0.5

CG16824 [DRSC02525]
- replicate 1, z-score of dpERK with insulin: 1.05
- replicate 2, z-score of dpERK with insulin: 2.05

CG15333 [DRSC18016]
- replicate 1, z-score of dpERK with insulin: -0.25
- replicate 2, z-score of dpERK with insulin: -0.13

The results go on:
gene	dsRNA	replicate 1, z-score of dpERK with insulin	replicate 2, z-score of dpERK with insulin
CG34375	DRSC14684	0.67	1.07
CG34375	DRSC14685	-0.01	0
CG12439	DRSC02168	0.6	0.06
stj	DRSC06124	0.01	-1.02
Nup214	DRSC04421	0.9	0.8
Srrm234	DRSC07955	0.43	0.14
Srrm234	DRSC08606	0.03	-0.27
CG2111	DRSC18205	-0.26	0.5
CG34296	DRSC13961	-0.14	-0.24
CG30016	DRSC05242	0.29	-0.27
Tsp66A + CG42661 + CG42660	DRSC10233	-0.32	-0.15
Mmp1	DRSC04493	0.92	1.03
DnaJ-H	DRSC03273	0.27	0.84
beta'COP	DRSC03492	2.04	2.36
CG31075	DRSC16016	0.48	0
CG4935	DRSC01924	1.17	0.58
Su(fu)	DRSC16871	0.11	-0.36
asRNA:CR43463 + Pgant35A	DRSC03557	0.25	0.14
asRNA:CR31514 + CG12947	DRSC14575	0.88	0.16
Gfrl	DRSC15196	-0.42	0.26
Gfrl	DRSC15197	-0.11	0.51
Gfrl	DRSC15199	1.51	0.62
Gfrl	DRSC15565	-0.28	0.19
Gfrl	DRSC15719	-0.11	-0.54
